From paper PMC4936093
These are yes or no findings as the source states them, for the method shown. A result given as binding can be weak or reduced; the word gives no strength.

Biological target: VpPI (Viola philippica)
Assay: two-hybrid; yeast GAL4 two-hybrid system, strain AH109; BD and AD fusion plasmids co-transformed; growth on SD plates lacking Leu, Trp, Ade and His, confirmed by non-lethal beta-galactosidase assay; which protein was the BD and which the AD fusion is not told

Row | Substance | binding
1 | VpTM6-1 (from UniProt A0A1S5T3I6) | binds
2 | VpTM6-2 (from UniProt A0A1S5T3I1) | binds weakly
